In the data set the test system is human colon carcinoma cell line, HCT116. Description: Cancer cell proliferation, SRB assay. The data set is classed as cell-based. Conditions: CC50(μM)/EC50(μM), MRC-5 vs HCT116. On the procedure:
In order to examine the suppressive effect of the inventive aminopyrimidine derivatives on the proliferation of cancer cells through inhibiting the protein kinase activity, a test was performed as follows by employing human colon carcinoma cell line, HCT116 (Korean Cell Line Bank, KCLB10247) and human fetal cell line, MRC-5 (Korean Cell Line Bank, KCLB10171).
HCT116 and MRC-5 cells were plated into the wells of a 96-well plate containing DMEM (Dulbecco's Modified Eagle Medium) medium at a concentration ranging from 1×10^3 to 3×10^3 cells/well, and cultured under conditions of 5% CO2 and 37° C. for 24 hours. Then, the test compounds of Examples 85 to 88, 97 to 99, 105 to 110 and 115 to 118, and a comparative compound, N-(4-(4-(5-methyl-1H-pyrrole-3-yl-amino)-6-(4-methylpiperazin-1-yl)-1,3,5-triazin-2-ylthio) cyclopropane carboxyamide were added thereto in an amount of 0.2, 1, 5, 25 and 100 μM, respectively. The control was not treated with any compound. The cells were cultured for 48 hours.
After removing the medium from each wells, the cells were washed about 3 times with phosphate-buffered saline (PBS, pH 7.4), followed by fixing with 50% TCA (trichloroacetic acid) refrigerant solution in an amount of 50 μl/well at 4° C. for 1 hour. The fixed cells were washed 5 times with distilled water and dried in the air, and stained with 50 μl/well of 1% acetic acid containing 0.4% SRB (sulforhodamine B) solution at room temperature for 1 hour. The stained cells were washed 5 times with 1% acetic acid and dried in the air, 150 μl/well of 10 mM Tris-HCl (pH 10.5) were added thereto, and the absorbance of each well was measured at 540 nm. The suppressive value of each compound for cell proliferation was calculated based on the absorbance of the control well, and the results are shown in Table 2. In Table 2, EC50 (μM) was determined as a concentration of the test compound required to inhibit cancer cell proliferation by 50% relative to the control, CC50 (μM) was determined as a concentration of the test compound required to inhibit normal cell proliferation by 50% relative to the control, and the therapeutic index was determined as the value of CC50(μM)/EC50(μM).

Take `CC1(C)C2CCC1(C)C(NC(=O)c1ccnc(Nc3cccc(NCCCN4CCOCC4)c3)n1)C2` (centres unmarked) [Compound 97, 2-(3-(3-morpholinopropylamino)phenylamino)-N-(1,7,7-trimethylbicyclo[2.2.1]hep-tan-2-yl)pyrimidine-4-carboxyamide]: the Therapeutic index is >33.3. Take `CCN(CC)CCOc1cc(Nc2nccc(C(=O)NC3CC4CCC3(C)C4(C)C)n2)ccc1OC` (centres unmarked) [Compound 106, 2-(3-(2-(diethylamino)ethoxy)-4-methoxyphenylamino)-N-(1,7,7-trimethylbicyclo[2.2.1]hep-tan-2-yl)pyrimidine-4-carboxyamide]: the Therapeutic index was 67.6.

For the compound `CN(C)CCNc1ccc(Nc2nccc(C(=O)NC3CC4CCC3(C)C4(C)C)n2)cc1` (centres unmarked) [Compound 86], the Therapeutic index is recorded as >83. For `CC1(C)C2CCC1(C)C(NC(=O)c1ccnc(Nc3ccc(N4CCN(CCO)CC4)cc3)n1)C2` (centres unmarked) [Compound 108, 2-(4-(4-(2-hydroxyethyl)piperazin-1-yl)phenylamino)-N-(1,7,7-trimethylbicyclo[2.2.1]hep-tan-2-yl)pyrimidine-4-carboxyamide], the Therapeutic index turned out to be 29.4. Then `CC(C)CN1CCN(c2ccc(Nc3nccc(C(=O)NC4CC5CCC4(C)C5(C)C)n3)cc2)CC1` (centres unmarked) [Compound 115, 2-(4-(4-isobutylpiperazin-1-yl)phenylamino)-N-(1,7,7-trimethylbicyclo-[2.2.1]heptan-2-yl)pyrimidine-4-carboxyamide], with 32.4. Then `CCCN1CCN(c2ccc(Nc3nccc(C(=O)NC4CC5CCC4(C)C5(C)C)n3)cc2)CC1` (centres unmarked) [Compound 110, 2-(4-(4-propylpiperazin-1-yl)phenylamino)-N-(1,7,7-trimethylbicyclo[2.2.1]hep-tan-2-yl)pyrimidine-4-carboxyamide], with 16.8. As for `CC1(C)C2CCC1(C)C(NC(=O)c1ccnc(Nc3cccc(NCCCN4CCOCC4)c3)n1)C2` (centres unmarked) [Compound 98, 2-(3-(3-morpholinopropylamino)phenylamino)-N-(1,7,7-trimethylbicyclo[2.2.1]hep-tan-2-yl)pyrimidine-4-carboxyamide], the figure is 16.4; as for `COc1ccc(Nc2nccc(C(=O)NC3CC4CCC3(C)C4(C)C)n2)cc1OCCN1CCCC1` (centres unmarked) [Compound 107, 2-(4-methoxy-3-(2-(pyrrolidin-1-yl)ethoxy)phenylamino)-N-(1,7,7-trimethylbicyclo[2.2.1]hep-tan-2-yl)pyrimidine-4-carboxyamide], 38.0; as for `CC1(C)C2CCC1(C)C(NC(=O)c1ccnc(Nc3ccc(N4CCCCC4)cc3)n1)C2` (centres unmarked) [Compound 85, 2-(4-(piperidine-1-yl)phenylamino)-N-(1,7,7-trimethylbicyclo[2.2.1]heptane-2-yl)pyrimidine-4-carboxyamide], 23.8. In turn, `COc1ccc(Nc2nccc(C(=O)NC3CC4CCC3(C)C4(C)C)n2)cc1OCCN1CCOCC1` (centres unmarked) [Compound 99, 2-(4-methoxy-3-(2-morpholinoethoxy)phenyl-amino)-N-(1,7,7-trimethylbicyclo[2.2.1]hep-tan-2-yl)pyrimidine-4-carboxyamide] showed a Therapeutic index of 26.0. As for `CC1(C)C2CCC1(C)C(NC(=O)c1ccnc(Nc3ccc(N4CCN(CC#N)CC4)cc3)n1)C2` (centres unmarked) [Compound 116, 2-(4-(4-(cianomethyl)piperazin-1-yl)phenylamino)-N-(1,7,7-trimethylbicyclo [2.2.1]heptan-2-yl)pyrimidine-4-carboxyamide], the Therapeutic index is 15.6.

With `CCN1CCN(c2ccc(Nc3nccc(C(=O)NC4CC5CCC4(C)C5(C)C)n3)cc2)CC1` (centres unmarked) [Compound 105, 2-(4-(4-ethylpiperazin-1-yl)phenylamino)-N-(1,7,7-trimethylbicyclo[2.2.1]hep-tan-2-yl)pyrimidine-4-carboxyamide], the Therapeutic index is listed as >100. Then `CC1(C)C2CCC1(C)C(NC(=O)c1ccnc(Nc3cccc(NCC#N)c3)n1)C2` (centres unmarked) [Compound 118, 2-(3-(cianomethylamino)phenylami-no)-N-(1,7,7-trimethylbicyclo-[2.2.1]heptane-2-yl)pyrimidine-4-carboxyamide], with 22.4. In turn, `CC(C)N1CCN(c2ccc(Nc3nccc(C(=O)NC4CC5CCC4(C)C5(C)C)n3)cc2)CC1` (centres unmarked) [Compound 109, 2-(4-(4-isopropylpiperazin-1-yl)phenylamino)-N-(1,7,7-trimethylbicyclo[2.2.1]hep-tan-2-yl)pyrimidine-4-carboxyamide] returned a Therapeutic index of 8.4.

Values taken from patent publication US20090227612A1, “Aminopyrimidine Derivatives Inhibiting Protein Kinase Activity, Method For The Preparation Thereof And Pharmaceutical Composition Containing Same” (priority 2005, published 2009).
